Binding data for one substance are collected here from PMC10575922.

The chains behind the UniProt entries cited, without tags or fusion partners.
UniProt P35580: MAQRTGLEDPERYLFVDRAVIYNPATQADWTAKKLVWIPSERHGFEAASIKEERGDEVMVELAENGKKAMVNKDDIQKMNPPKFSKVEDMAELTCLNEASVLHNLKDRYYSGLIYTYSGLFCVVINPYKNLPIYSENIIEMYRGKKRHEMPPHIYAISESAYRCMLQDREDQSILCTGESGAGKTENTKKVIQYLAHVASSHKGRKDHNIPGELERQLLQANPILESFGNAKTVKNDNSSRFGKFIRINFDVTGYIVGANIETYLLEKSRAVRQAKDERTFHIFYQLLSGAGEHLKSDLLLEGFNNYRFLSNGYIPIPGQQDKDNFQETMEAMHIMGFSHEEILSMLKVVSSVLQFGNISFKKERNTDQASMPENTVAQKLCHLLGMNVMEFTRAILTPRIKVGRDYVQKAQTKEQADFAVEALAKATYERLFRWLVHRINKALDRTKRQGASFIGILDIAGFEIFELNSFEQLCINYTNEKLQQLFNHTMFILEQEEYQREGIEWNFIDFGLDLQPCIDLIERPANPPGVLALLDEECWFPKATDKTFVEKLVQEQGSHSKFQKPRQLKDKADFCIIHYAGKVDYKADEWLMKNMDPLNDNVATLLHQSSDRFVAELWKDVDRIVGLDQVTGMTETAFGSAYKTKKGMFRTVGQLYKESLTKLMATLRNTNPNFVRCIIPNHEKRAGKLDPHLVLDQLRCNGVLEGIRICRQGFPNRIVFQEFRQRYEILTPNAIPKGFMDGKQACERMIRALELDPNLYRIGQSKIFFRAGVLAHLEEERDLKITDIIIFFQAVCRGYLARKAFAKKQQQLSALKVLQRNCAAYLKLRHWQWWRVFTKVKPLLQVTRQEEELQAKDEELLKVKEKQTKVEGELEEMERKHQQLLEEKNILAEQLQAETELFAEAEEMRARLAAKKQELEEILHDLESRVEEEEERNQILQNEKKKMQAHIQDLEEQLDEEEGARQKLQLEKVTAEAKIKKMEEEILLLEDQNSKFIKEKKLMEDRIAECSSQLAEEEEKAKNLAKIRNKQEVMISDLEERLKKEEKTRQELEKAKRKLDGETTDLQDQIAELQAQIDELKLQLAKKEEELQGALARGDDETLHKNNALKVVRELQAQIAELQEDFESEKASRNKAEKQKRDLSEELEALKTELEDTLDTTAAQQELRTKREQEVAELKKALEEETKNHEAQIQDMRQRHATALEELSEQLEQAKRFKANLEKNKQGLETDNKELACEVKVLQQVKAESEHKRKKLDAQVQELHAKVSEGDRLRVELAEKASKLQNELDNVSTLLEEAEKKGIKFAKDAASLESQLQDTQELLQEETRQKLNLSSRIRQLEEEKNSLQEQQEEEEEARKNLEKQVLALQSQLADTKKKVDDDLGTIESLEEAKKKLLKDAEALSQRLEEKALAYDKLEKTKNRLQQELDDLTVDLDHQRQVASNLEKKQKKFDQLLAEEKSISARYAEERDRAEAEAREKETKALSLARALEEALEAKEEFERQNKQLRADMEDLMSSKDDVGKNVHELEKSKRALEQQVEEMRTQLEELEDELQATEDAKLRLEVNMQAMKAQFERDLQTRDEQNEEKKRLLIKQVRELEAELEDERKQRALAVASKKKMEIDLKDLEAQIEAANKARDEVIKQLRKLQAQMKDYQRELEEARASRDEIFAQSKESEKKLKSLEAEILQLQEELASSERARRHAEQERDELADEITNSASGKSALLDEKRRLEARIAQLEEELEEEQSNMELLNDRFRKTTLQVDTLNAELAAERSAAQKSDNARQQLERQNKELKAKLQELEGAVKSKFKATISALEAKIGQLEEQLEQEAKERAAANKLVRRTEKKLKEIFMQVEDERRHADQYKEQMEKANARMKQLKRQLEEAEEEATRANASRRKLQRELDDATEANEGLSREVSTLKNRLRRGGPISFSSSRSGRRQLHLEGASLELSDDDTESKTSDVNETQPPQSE

No constants are given. Whether binding was seen depends on the method and setting. In cells and extracts the contact can be indirect. Some results given as binding are weak or reduced against the parent protein; the word gives no strength. Sequences can lack the tags named with a protein.

This experiment has as its target T1, EGFP-tagged wild-type PKP2 (human) (UniProt Q99959).
T1 sequence: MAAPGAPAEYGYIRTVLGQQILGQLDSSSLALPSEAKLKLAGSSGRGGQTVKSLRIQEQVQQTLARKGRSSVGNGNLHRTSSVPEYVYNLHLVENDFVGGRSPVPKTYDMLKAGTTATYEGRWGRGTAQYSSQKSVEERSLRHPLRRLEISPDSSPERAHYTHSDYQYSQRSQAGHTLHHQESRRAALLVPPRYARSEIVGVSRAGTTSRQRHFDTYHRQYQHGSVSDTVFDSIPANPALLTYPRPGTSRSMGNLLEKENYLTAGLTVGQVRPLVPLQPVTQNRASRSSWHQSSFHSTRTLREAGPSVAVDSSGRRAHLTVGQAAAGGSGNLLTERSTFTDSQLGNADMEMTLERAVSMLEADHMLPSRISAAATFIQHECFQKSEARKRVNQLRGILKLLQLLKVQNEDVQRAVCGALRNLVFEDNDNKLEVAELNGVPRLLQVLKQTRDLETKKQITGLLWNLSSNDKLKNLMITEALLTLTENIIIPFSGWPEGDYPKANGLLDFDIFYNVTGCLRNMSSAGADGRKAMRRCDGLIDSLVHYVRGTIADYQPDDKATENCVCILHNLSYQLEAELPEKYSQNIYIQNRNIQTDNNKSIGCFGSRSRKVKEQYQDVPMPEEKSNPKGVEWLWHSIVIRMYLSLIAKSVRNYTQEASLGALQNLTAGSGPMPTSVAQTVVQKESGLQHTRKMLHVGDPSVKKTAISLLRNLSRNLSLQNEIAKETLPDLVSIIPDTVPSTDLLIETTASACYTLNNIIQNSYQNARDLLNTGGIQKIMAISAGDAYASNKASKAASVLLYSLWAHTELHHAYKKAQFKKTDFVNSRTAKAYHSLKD
Put plainly: co-IP; HEK293T lysate in NP-40 buffer (150 mM NaCl, 50 mM Tris-HCl pH 8.0, 1% NP-40); rat IgG1 anti-EGFP on Dynabeads A, 1 mg protein, overnight at 4 °C; western blot for MYH10 and EGFP.

Turning to “myosin 10 (MYH10) (from UniProt P35580 1-1976)”, the binding result is on record as “binds”.
